Values from PubChem BioAssay AID1508597 (Cure First, 2020)

Assay: 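Genes whose silencing sensitises or protects ovarian cancer cells against rucaparib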 (primary screen)
System: human ovarian carcinoma lines grown from tumours: OCI-P5x (papillary serous) and OCI-C5x (clear cell)
Knock-down reagent: siRNA pool against human genes, 1.25 pmol siRNA per well
Time to read-out: 72 h or 96 h, depending on the cell culture
Challenge: rucaparib 20 µM (about IC30) or vehicle, present until read-out
Rucaparib or vehicle: Vehicle
Cell line: OCI-C5x (clear cell)
Measured: 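Luminescent ATP-based viability assay read 72 or 96 h after transfection, depending on culture, given as normalised percent viability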
Scale: viability, normalised: higher = more viable cells remaining
Hit rule: 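a well counts as a hit if its normalised viability is under 80 percent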
Meaning of the calls: active = viability under 80%; inactive = viability 80% or more
Shown is an unselected part of the about 2,100 reagents, in one setting of the screen. 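Calls flag viability under 80% in either arm, not effects specific to rucaparib; the reference for percent is not stated.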 Some reagents were tested in more than one well and are listed for each. Not stated in the record: the 100% reference.

With TONSL, technical replicate 1, the entry reads viability, normalised (%) = 53.6; active. TONSL, technical replicate 2 scored viability, normalised (%) = 41.4; active. TONSL, technical replicate 3 showed viability, normalised (%) = 45.7; active. For NEK11, technical replicate 1 the deposit lists viability, normalised (%) = 124; inactive. NEK11, technical replicate 2 gave viability, normalised (%) = 61.3; active. For NEK11, technical replicate 3, the values are viability, normalised (%) = 52.9; active.

ARID5A, technical replicate 1 scored viability, normalised (%) = 26.4; active. ARID5A, technical replicate 2 scored viability, normalised (%) = 43.5; active. For ARID5A, technical replicate 3, the values are viability, normalised (%) = 38.2; active. LY6E, technical replicate 1 scored viability, normalised (%) = 63.4; active. LY6E, technical replicate 2 gave viability, normalised (%) = 70.1; active. LY6E, technical replicate 3 showed viability, normalised (%) = 54.5; active.

For UIMC1, technical replicate 1 the deposit lists viability, normalised (%) = 45.2; active. For UIMC1, technical replicate 1, the entry reads viability, normalised (%) = 127; inactive. UIMC1, technical replicate 2 showed viability, normalised (%) = 46.9; active. With UIMC1, technical replicate 2 the deposit lists viability, normalised (%) = 64.5; active. UIMC1, technical replicate 3 gave viability, normalised (%) = 41.7; active. With UIMC1, technical replicate 3, the values are viability, normalised (%) = 40.6; active.

CTPS1, technical replicate 1 showed viability, normalised (%) = 42.7; active. CTPS1, technical replicate 2 scored viability, normalised (%) = 33.4; active. For CTPS1, technical replicate 3, the values are viability, normalised (%) = 37.2; active. STK17B, technical replicate 1 showed viability, normalised (%) = 93.2; inactive. With STK17B, technical replicate 2, the values are viability, normalised (%) = 109; inactive. With STK17B, technical replicate 3 the deposit lists viability, normalised (%) = 93; inactive.

For ASF1A, technical replicate 1 the deposit lists viability, normalised (%) = 37.9; active. ASF1A, technical replicate 2 gave viability, normalised (%) = 37.6; active. ASF1A, technical replicate 3 scored viability, normalised (%) = 44.3; active. PAK1, technical replicate 1 scored viability, normalised (%) = 67.3; active. For PAK1, technical replicate 2 the deposit lists viability, normalised (%) = 60.7; active. PAK1, technical replicate 3 gave viability, normalised (%) = 60.6; active.

With DMPK, technical replicate 1, the values are viability, normalised (%) = 58.4; active. For DMPK, technical replicate 2 the deposit lists viability, normalised (%) = 50.5; active. For DMPK, technical replicate 3 the deposit lists viability, normalised (%) = 72.4; active.

Entries above whose gene name starts with D or d:
DMPK, technical replicate 1 | viability, normalised (%): 58.4; Outcome: active
DMPK, technical replicate 2 | viability, normalised (%): 50.5; Outcome: active
DMPK, technical replicate 3 | viability, normalised (%): 72.4; Outcome: active
